# In PubChem BioAssay AID1439 (NMMLSC, 2008):
# Protein sequences, listed by entry. Tags and fused reporters are not part of them.
# UniProt P09471, whole entry, looked up: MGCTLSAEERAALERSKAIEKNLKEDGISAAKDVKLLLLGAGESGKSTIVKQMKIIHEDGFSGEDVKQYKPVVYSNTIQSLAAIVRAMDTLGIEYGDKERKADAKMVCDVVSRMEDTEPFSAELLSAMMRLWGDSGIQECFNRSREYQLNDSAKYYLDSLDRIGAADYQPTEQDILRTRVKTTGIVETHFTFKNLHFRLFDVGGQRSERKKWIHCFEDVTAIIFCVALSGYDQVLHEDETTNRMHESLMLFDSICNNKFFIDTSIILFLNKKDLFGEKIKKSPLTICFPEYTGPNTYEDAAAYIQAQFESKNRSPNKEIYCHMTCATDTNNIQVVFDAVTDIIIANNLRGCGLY
# Out of some 220,000 compounds screened, about 770 (0.35%) were called active. The inconclusive results got no clear call from the source; some entries with a clear call stand among them for comparison. No stated cut-off is given here; in the data, active means binding response below about 49% or above about 150%; inconclusive means no clear call, values can overlap the other calls; inactive means in between.
# Target: Guanine nucleotide-binding protein G(o) subunit alpha (Homo sapiens) (UniProt P09471)
# Experiment: RGS7-Galphao binding modulators, primary screen, biochemical, multiplexed bead flow cytometry (AID 1439);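 further: fluorescent Galphao held in activated GDP-AlF4 state binding bead-coupled RGS7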
# Settings: at 10 µM, actives lie on both sides
row,SMILES,binding response (% of control)
1,Cc1ccc(NC2=NC3(CCCC3)N=C(N)N2)c(C)c1,inconclusive: 86.3%
2,O=C(NCc1cccs1)C1CCN(S(=O)(=O)c2ccccc2F)CC1,inconclusive: 124%
3,C[N+](C)(C)CCN1C(=O)CSC1=O,inconclusive: 114%
4,CN1CCN(C(c2cccc(C(F)(F)F)c2)c2nnnn2Cc2ccccc2)CC1 (stereo not given),inactive: 120%
5,C/C=C/C=C/C(=O)N1CC2(CC(c3cccc(NC(=O)/C=C/C)c3)=NO2)C[C@@H]1C(N)=O (stereo not given in full),inconclusive: 72.4%
6,O=C(NN1CCOCC1)c1ccc(Cl)s1,inactive: 101%
7,NNC(=O)c1sccc1OCc1ccc(Cl)cc1,inconclusive: 102%
8,Cc1cc2nc3c(=O)n(Cc4ccccc4)c(=O)[nH]c3nc2cc1N,inconclusive: 142%
9,Cc1ccc(C(=O)c2sc3nc4c(cc3c2N)CCC4)cc1,inactive: 107%
10,COc1ccc(-c2nc3n(c2C)CCC3)cc1,inconclusive: 48.9%
11,COc1ccc(CCNc2nc3ccccc3n3cnnc23)cc1OC,inconclusive: 103%
12,Cc1nnc(N(Cc2ccco2)C(=O)c2cccc(C#N)c2)s1,inactive: 100%
13,S=c1[nH]nc(COc2ccc(Cl)cc2)n1Cc1ccco1,inconclusive: 103%
14,Cc1ccc(C)c(OCCCC(=O)N2CCOCC2)c1,inactive: 103%
15,O=[N+]([O-])c1ncccc1Oc1nc(-c2cccnc2)nc2ccccc12,inconclusive: 87.3%
16,CN(C)S(=O)(=O)c1cc(NC(=O)CN2CCN(c3ccccc3O)CC2)ccc1Cl,inactive: 97.7%
17,C/C(Cc1ccccc1)=N\NC(=O)CNC(=O)c1ccc(Cl)cc1Cl,inconclusive: 123%
18,COC(=O)[C@]12C(=O)C(C)=C(O)[C@@]1(C)C(C)=CC1[C@@]34CC[C@@H](OC(C)=O)C(C)(C)C3C(C[C@]12C)OC4=O (stereo not given in full),inconclusive: 82.9%
19,O=C(NCCNS(=O)(=O)c1ccc(C(F)(F)F)cc1)N1CCOCC1,inconclusive: 106%
20,O=C(Cn1cccc1C(=O)c1ccccc1)NCc1ccc(Cl)cc1,inactive: 99.5%
21,Cc1nnc(Nc2ccc(Cl)cc2)s1,inconclusive: 105%
22,COc1ccc([N+](=O)[O-])cc1-n1cnnn1,inactive: 98%
23,NC1=NC2CS(=O)(=O)CC2S1 (stereo not given),inactive: 104%

row,SMILES,binding response (% of control)
1,O=[N+]([O-])c1cccc(-c2nc3ccccc3s/c2=N/O)c1,inconclusive: 212%
2,CCC(CC)C(=O)c1c[nH]c(C(=O)N2CCN(c3ccccc3F)CC2)c1,inconclusive: 81.7%
3,COc1ccc([C@@]2(O)c3c(ccc(CC=C(C)C)c3O)NC(=O)[C@@H]2OC)cc1,inconclusive: 72.7%
4,COc1ccc(C(=O)NC(=S)Nc2cccnc2)cc1[N+](=O)[O-],inconclusive: 118%
5,CCN(CC)c1ccc(NC(=O)c2cccc(F)c2)c(C)c1,active: 40.3%
6,Cc1nc(-c2ccncc2)nc(NCCNc2ccc(C(F)(F)F)cn2)c1Cl,inconclusive: 98.9%
7,CCOC(=O)Cn1c(=O)c(-c2ccccc2N)nc2ccccc21,inconclusive: 84.9%
8,Cc1c(Cl)cccc1NC(=S)N(Cc1cccs1)C1CCCC1,inconclusive: 102%
9,C/C(CC(C)C)=N\NS(=O)(=O)c1ccc(C)c([N+](=O)[O-])c1,inconclusive: 246%
10,C=CCN1c2ccccc2[C@]23C[C@@H](C(=O)OC)N(C(=O)c4cccs4)C2=NC(C(=O)OC)=C(C(=O)OC)[C@H]13,inconclusive: 75.6%
11,COc1ccc(N2C(=O)c3ccccc3NC23CCCC3)cc1,inconclusive: 97.1%
12,COC(=O)c1sccc1S(=O)(=O)Nc1ccc(Cl)cc1,inconclusive: 81.1%
13,CCN(CC)S(=O)(=O)c1ccc(OC)c(NC(=O)CSc2cc(C)ccc2C)c1,inactive: 104%
14,O=C(O)COCC(=O)N1CCN(C(c2ccccc2)c2ccccc2)CC1,inconclusive: 80.2%
15,CC1SC(C)C(=O)N(CC(=O)NCc2ccc(F)cc2)C1=O (stereo not given),inactive: 101%
16,CCN(CC)S(=O)(=O)c1ccc(OC)c(NC(=O)/C=C/c2ccco2)c1,inconclusive: 80.5%
17,O=C(CNc1ccc(F)cc1)N/N=C1\CCc2ccccc21,inconclusive: 123%
18,O=C(NCc1ccccc1Cl)C(=O)c1c[nH]c2ccccc12,inactive: 105%
19,Cc1[nH]n(-c2ccccc2)c(=O)c1C=Nc1cccc(F)c1,inconclusive: 5.23%
20,N/C(=N\OC(=O)c1ccc2c(c1)OCO2)c1ccncc1,inconclusive: 87.1%
21,Cc1c(/C=C2\SC(=Nc3cccc(C(=O)O)c3)NC2=O)c2ccccc2n1C,inconclusive: 63.4%
22,COc1ccc(-c2nnc(SCC(=O)NC3CCCc4ccccc43)n2N)cc1 (stereo not given),inactive: 99.3%

# Reformatted with bars between the fields: part of the list above.
row | SMILES | binding response (% of control)
6 | Cc1nc(-c2ccncc2)nc(NCCNc2ccc(C(F)(F)F)cn2)c1Cl | inconclusive: 98.9%
8 | Cc1c(Cl)cccc1NC(=S)N(Cc1cccs1)C1CCCC1 | inconclusive: 102%
11 | COc1ccc(N2C(=O)c3ccccc3NC23CCCC3)cc1 | inconclusive: 97.1%
13 | CCN(CC)S(=O)(=O)c1ccc(OC)c(NC(=O)CSc2cc(C)ccc2C)c1 | inactive: 104%
15 | CC1SC(C)C(=O)N(CC(=O)NCc2ccc(F)cc2)C1=O (stereo not given) | inactive: 101%
16 | CCN(CC)S(=O)(=O)c1ccc(OC)c(NC(=O)/C=C/c2ccco2)c1 | inconclusive: 80.5%
21 | Cc1c(/C=C2\SC(=Nc3cccc(C(=O)O)c3)NC2=O)c2ccccc2n1C | inconclusive: 63.4%
22 | COc1ccc(-c2nnc(SCC(=O)NC3CCCc4ccccc43)n2N)cc1 (stereo not given) | inactive: 99.3%
